The text below walks through data of PubChem BioAssay AID1508623 (National Center for Advancing Translational Sciences (NCATS), 2021).

What follows is the remainder of the data, with few or none of the hits. Records with an inconclusive call do not appear. The source made the active and inactive calls. Calls come from the whole dose curve; as a rule, active = well fitted inhibition curve with a large enough effect; inconclusive = small, poorly fitted or top-dose-only effect; inactive = no such curve, though single readings can be large or run the other way.

This assay in a line: Primary qHTS for Identification of Small Molecule Inhibitors of Huntingtin Promoter Activity. Note: nearly all actives have a fitted effect of over 50% in size. Conditions: HEK293 HTT promoter firefly luciferase reporter (activity 0% = vehicle and -100% = no light), 24 h; at 57.5 µM (top of the series). From the text:
Assay Provider: Russell L. Margolis M.D.
Department Neurology, Johns Hopkins University School of Medicine, Baltimore, MD
Huntington's Disease (HD) is a neurodegenerative disorder caused by a CAG repeat expansion in exon 1 of huntingtin (HTT). While there are currently no disease-modifying treatments for HD, recent efforts have focused on development of nucleotide-based therapeutics to lower HTT expression. As an alternative to siRNA or oligonucleotide methods, we hypothesized that suppression of HTT expression might be accomplished by small molecules that either (1) directly decrease HTT expression by suppressing HTT promoter activity or (2) indirectly decrease HTT expression by increasing the promoter activity of HTT-AS, the gene antisense to HTT that appears to inhibit expression of HTT. […]
7; Detection; Luminescence; FLuc […]
1; High-throughput screening, measuring luminescence from a Hek293 luciferase reporter, was performed in 1,536 well white-walled tissue-culture treated plates. […]
4; Cells were then incubated for 24 hours at 37 degrees C prior to luminescence measurements.
5; In all cases, luminescence was measured using the Dual-Glo Luciferase Reporter Assay System (Promega) following the manufacturer's instructions. […]
7; Luminescence signal was obtained using the PerkinElmer ViewLux plate reader. […]
For the molecule `CC(C)(C)c1ccc(O)cc1`, the activity change, negative = inhibition was inactive: 12%.
